No constants are given. Whether binding was seen depends on the method and setting. In cells and extracts the contact can be indirect. A yes stands for co-enrichment or nearness to the bait. Other partners may have been found.
Tests used:
[1] = target: Ring1B (mouse (endogenous in ESCs)) (UniProt Q9CQJ4); experiment: affinity purification with mass spectrometry; IP with anti-Ring1B (MBL, D139-3) from 400 ug ESC nuclear extract (WT cells, or Ring1B-/- cells rescued with Ring1BI53A), Protein G Sepharose 2 h at 4 C, washes BC300 (300 mM NaCl, 0.05% NP40) and BC100; 4-20% SDS-PAGE, bands cut, nLC-ESI-MS/MS; peptides also in the control IgG lane discarded; IgG heavy and light chain bands omitted
Ring1BI53A = Ring1BI53A (UniProt Q9CQJ4); experiment: as above

Amino acid sequences for entries named in this document (tags omitted). A change or cut given only in a name is not applied to a line headed by its entry.
UniProt Q9CQJ4: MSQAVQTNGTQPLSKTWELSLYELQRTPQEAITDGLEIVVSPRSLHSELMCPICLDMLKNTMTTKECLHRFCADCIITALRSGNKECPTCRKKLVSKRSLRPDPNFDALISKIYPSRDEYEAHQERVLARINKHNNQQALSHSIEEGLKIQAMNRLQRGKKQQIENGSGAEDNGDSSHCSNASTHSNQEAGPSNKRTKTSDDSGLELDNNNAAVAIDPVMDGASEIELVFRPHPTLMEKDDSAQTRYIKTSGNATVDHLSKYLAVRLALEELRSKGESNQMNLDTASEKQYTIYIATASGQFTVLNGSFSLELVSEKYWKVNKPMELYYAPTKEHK
UniProt Q8CGN4: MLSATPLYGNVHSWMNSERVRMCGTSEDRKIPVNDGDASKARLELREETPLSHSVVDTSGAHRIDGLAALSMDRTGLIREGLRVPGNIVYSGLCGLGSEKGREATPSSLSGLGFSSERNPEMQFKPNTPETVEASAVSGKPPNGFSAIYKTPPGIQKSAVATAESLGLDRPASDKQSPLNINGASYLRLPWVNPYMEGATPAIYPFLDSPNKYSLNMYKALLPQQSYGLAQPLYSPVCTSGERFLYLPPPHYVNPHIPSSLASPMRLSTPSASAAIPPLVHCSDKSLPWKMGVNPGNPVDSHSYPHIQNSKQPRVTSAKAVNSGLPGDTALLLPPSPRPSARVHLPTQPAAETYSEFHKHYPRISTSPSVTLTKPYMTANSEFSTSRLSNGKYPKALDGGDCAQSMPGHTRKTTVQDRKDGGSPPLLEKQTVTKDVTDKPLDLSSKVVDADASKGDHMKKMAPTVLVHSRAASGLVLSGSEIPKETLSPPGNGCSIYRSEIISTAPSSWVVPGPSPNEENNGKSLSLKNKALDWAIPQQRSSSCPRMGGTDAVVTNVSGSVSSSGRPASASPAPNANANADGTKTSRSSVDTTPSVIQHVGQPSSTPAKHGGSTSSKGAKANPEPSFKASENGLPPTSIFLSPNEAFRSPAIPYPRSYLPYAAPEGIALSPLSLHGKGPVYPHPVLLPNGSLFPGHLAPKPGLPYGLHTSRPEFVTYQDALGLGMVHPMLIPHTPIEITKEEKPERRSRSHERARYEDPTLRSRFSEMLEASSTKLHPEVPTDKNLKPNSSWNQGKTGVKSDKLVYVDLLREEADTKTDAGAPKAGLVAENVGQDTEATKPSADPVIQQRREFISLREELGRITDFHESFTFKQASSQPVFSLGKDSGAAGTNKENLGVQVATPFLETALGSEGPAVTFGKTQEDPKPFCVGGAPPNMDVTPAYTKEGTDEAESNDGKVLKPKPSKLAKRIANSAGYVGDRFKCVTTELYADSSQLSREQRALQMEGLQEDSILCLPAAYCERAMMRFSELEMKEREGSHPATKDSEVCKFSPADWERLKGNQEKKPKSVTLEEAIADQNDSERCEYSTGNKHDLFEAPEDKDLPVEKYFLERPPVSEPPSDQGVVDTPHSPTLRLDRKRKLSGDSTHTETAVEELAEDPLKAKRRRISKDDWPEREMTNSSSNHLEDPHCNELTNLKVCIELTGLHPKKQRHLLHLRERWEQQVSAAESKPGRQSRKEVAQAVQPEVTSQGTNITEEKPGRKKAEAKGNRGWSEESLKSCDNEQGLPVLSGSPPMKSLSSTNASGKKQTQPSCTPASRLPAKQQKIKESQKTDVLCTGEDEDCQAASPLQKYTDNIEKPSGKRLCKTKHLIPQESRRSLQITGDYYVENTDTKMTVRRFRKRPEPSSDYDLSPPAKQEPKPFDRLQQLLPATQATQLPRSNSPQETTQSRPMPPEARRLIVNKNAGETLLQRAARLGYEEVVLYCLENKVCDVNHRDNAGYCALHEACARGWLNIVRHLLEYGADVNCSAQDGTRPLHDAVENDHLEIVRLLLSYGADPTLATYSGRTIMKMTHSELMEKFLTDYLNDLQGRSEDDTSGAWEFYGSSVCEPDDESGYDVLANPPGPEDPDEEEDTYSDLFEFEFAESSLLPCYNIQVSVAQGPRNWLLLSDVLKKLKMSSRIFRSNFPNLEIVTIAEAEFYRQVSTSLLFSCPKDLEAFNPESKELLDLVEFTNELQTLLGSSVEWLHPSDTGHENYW
UniProt Q8R3B7: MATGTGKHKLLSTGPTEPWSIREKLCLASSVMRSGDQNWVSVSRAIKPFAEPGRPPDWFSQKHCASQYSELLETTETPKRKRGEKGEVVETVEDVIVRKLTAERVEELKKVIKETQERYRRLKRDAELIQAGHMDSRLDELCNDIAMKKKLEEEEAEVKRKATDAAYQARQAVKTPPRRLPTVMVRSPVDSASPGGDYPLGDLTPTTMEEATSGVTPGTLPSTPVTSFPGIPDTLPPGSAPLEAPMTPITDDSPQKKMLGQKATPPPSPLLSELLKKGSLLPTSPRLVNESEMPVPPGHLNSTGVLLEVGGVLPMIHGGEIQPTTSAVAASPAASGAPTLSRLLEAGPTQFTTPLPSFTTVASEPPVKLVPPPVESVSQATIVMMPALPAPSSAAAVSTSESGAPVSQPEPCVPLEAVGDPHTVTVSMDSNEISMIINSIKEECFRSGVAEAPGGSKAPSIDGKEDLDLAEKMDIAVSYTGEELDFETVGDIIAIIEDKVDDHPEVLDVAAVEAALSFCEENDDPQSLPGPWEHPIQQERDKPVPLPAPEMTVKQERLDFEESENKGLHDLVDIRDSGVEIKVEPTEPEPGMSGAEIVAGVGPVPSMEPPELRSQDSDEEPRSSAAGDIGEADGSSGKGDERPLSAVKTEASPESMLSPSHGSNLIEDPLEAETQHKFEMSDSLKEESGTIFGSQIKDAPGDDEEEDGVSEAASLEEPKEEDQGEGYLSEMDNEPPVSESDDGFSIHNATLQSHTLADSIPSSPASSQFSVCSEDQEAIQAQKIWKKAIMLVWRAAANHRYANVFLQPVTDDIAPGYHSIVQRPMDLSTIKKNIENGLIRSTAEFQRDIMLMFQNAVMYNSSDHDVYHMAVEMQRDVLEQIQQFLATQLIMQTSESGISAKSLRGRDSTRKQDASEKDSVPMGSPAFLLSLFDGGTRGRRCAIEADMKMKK
UniProt P45481: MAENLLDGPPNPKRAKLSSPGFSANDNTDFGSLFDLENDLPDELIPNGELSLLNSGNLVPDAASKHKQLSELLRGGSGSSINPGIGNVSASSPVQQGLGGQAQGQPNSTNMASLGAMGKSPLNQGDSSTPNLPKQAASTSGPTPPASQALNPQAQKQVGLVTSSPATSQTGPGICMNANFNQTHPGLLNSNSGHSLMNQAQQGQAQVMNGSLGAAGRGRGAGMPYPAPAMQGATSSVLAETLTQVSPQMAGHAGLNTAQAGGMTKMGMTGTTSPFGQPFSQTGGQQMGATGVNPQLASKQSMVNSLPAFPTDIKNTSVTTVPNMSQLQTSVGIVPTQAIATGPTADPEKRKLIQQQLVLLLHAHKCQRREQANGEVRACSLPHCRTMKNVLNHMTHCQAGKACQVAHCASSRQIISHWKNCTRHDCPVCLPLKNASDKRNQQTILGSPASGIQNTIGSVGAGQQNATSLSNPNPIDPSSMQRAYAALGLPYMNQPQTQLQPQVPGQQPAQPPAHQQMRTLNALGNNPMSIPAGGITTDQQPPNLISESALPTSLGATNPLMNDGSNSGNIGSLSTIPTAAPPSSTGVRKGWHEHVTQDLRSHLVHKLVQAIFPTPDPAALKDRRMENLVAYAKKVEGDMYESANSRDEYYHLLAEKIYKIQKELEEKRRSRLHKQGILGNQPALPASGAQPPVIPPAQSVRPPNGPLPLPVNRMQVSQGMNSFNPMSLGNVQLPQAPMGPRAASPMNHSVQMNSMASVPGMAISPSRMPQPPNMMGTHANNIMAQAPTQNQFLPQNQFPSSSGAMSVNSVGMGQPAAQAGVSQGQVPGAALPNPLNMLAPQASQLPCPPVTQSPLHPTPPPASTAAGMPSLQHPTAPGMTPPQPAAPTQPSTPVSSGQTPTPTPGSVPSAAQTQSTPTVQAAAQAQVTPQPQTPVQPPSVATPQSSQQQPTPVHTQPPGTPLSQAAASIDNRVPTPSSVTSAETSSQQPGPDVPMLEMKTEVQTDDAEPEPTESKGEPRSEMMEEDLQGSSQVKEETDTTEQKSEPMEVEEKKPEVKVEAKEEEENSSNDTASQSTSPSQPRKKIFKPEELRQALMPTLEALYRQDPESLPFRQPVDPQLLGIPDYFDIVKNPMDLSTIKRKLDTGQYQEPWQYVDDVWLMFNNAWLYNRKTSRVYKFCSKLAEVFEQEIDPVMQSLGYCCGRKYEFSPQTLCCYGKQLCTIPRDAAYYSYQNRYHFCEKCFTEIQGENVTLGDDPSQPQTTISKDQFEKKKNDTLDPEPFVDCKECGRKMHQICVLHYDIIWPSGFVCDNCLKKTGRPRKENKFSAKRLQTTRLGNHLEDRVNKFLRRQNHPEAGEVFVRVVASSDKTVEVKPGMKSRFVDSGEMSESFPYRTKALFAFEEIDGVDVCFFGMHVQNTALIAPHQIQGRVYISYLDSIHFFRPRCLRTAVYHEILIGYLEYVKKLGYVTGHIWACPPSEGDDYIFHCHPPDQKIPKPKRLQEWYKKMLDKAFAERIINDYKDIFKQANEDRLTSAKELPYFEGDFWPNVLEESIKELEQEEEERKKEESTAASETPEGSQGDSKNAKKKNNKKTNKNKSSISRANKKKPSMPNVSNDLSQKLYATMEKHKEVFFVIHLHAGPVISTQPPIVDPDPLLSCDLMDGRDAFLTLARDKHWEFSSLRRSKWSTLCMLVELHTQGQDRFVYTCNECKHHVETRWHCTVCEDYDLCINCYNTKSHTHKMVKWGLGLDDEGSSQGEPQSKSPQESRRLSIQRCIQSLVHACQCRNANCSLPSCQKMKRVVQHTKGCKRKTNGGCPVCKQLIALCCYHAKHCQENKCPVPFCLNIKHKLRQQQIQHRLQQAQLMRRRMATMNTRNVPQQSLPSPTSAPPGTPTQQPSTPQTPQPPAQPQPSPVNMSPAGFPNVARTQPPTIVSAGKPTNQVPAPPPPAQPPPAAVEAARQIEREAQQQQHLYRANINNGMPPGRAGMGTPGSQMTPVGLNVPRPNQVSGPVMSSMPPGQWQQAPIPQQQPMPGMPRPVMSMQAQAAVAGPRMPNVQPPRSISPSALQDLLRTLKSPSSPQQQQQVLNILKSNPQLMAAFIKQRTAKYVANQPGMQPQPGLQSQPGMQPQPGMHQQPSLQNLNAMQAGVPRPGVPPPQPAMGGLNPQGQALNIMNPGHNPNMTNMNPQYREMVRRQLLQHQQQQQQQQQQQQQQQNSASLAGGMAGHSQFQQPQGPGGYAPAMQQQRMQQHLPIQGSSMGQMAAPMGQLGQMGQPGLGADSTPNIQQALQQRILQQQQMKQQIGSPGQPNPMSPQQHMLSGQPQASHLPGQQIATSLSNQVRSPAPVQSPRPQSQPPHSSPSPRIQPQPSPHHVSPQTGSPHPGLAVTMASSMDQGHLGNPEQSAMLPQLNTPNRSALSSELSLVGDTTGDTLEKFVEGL
UniProt Q6P5G3: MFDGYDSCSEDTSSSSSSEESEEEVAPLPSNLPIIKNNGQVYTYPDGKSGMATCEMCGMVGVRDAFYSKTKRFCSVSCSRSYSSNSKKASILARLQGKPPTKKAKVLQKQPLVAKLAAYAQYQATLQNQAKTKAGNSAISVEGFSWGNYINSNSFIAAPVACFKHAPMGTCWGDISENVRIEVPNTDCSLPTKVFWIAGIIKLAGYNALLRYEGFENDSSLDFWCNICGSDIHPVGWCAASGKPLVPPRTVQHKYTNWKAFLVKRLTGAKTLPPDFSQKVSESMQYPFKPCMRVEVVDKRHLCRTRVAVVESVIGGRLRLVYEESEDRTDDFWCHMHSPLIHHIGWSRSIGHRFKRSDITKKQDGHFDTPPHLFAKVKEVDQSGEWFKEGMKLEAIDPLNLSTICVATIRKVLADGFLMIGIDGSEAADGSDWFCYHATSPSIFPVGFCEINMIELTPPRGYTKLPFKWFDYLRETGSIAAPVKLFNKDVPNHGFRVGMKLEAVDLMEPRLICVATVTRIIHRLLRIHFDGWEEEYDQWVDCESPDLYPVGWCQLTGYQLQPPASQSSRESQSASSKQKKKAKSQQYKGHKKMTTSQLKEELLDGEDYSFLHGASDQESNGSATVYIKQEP
UniProt Q9WTM5: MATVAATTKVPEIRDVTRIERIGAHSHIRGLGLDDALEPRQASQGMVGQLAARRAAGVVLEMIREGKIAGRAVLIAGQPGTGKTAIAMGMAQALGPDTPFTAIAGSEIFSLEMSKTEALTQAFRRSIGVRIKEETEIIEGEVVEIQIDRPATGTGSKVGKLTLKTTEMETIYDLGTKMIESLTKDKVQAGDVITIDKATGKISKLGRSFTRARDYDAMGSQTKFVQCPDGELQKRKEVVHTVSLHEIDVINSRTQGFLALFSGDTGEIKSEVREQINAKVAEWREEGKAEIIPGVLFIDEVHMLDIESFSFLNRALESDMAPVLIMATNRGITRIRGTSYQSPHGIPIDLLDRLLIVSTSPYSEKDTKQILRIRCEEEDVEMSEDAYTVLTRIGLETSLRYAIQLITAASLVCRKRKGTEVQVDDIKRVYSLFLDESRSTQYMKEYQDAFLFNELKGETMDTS

Row | Substance | binding [1] | binding (Ring1BI53A)
1 | BcoR (from UniProt Q8CGN4 1-1759) | binds | binds
2 | Brd8 (from UniProt Q8R3B7 1-951) | binds | binds
3 | CBP (from UniProt P45481 1-2441) (enzyme) | binds | binds
4 | Dmap1 (from UniProt Q9JI44 1-468) | binds | binds
5 | E2F.6 (from UniProt O54917 1-272) | – | binds
6 | Epc1 (from UniProt Q8C9X6 1-813) | binds | binds
7 | L3mbtl2 (from UniProt P59178 1-703) | binds | binds
8 | Mbtd1 (from UniProt Q6P5G3 1-631) | binds | binds
9 | Mga (from UniProt A2AWL7 1-3003) | binds | binds
10 | Mrgbp (from UniProt Q9DAT2 1-204) | binds | binds
11 | Paxip1 (from UniProt Q6NZQ4 1-1056) | binds | binds
12 | Ring1A (from UniProt O35730 1-406) | binds | binds
13 | Ruvbl2 (from UniProt Q9WTM5 1-463) | binds | binds
14 | Snf2h (from UniProt Q91ZW3 1-1051) | binds | binds

— paper PMC3322156
